# The campaign covered roughly 340,000 compounds. About 6,200 (1.8%) were called active. Inconclusive means that the source gave no clear call. Such entries were picked first, then a sample of the others. Calls follow the shape of the dose curve; as a rule, active = well fitted activation curve with a large enough effect; inconclusive = small, poorly fitted or top-dose-only effect; inactive = no such curve, though single readings can be large or run the other way. A potency beside an inconclusive call is a rough fit, not a confirmed value.
# Experiment: A quantitative high throughput screen for small molecules that induce DNA re-replication in SW480 colon adenocarcinoma cells. Also: nearly all actives have a fitted effect of over 55% in size. As to re-replication activation: % of control where 0% means no effect.
# Conditions: Hoechst DNA content imaging, 48 h; re-replication activation: at 46.1 µM (top of the series) unless noted
# Procedure, shortened: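 Readout is total intensity of Hoechst-stained nuclei, excited at 405 nm and collected at 500-530 nm. Compound treatment lasted 48 hr at 37 C in 5% CO2 before staining.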
# Potency is read from the fitted curve at half-maximal effect.
Compound,Potency,re-replication activation
COC1=C(Nc2ccc(C)cc2)C(=O)c2ccccc2C1=O,"inconclusive: 29.1 µM [activator, single point]",
COc1ccc(-n2nc(C(N)=O)c(O)cc2=O)cc1,"inconclusive: 6.51 µM [activator, partial curve, poor fit]",
O=C(O)CSc1nc2c(c(C(F)(F)F)n1)CCc1ccccc1-2,"inconclusive: 6.51 µM [activator, partial curve, poor fit]",
O=C1c2[nH]nc(-c3ccccc3O)c2C(c2ccc(F)cc2)N1Cc1ccco1 (centres undefined),"inconclusive: 23.1 µM [activator, single point]",
COCCCNC(=S)N/N=C/c1ccc(O)cc1O,"inconclusive: 20.6 µM [activator, single point]",
COc1ccc(OC)c(/C=N/NC(=O)CCc2ccc(O)c(O)c2)c1,"inconclusive: 32.6 µM [activator, single point]",
O=C(NNC(=O)c1cc(Cl)ccc1O)c1cccc(S(=O)(=O)N2CCOCC2)c1,"inconclusive: 22.4 µM [activator, single point]",
O=C(Nc1cccc(S(=O)(=O)c2cccc(NC(=O)c3ccco3)c2)c1)c1ccco1,,inactive: 4.25%
COc1ccc(-c2csc(N(Cc3ccco3)C(=O)c3cccs3)n2)cc1,,inactive: -1.5%
CC1CC(C(F)F)n2nc(C(=O)Nc3sc4c(c3C#N)CCC(C(C)(C)C)C4)nc2N1 (centres undefined),,inactive: 6.43% [at 9.22 µM]
O=C(Nc1nnc(SCc2ccc(F)cc2)s1)c1ccccn1,active: 13 µM,
CCC(=O)N1CCc2cc(OC)c(OC)cc2C1COc1ccc(C(=O)OC)cc1 (centres undefined),,inactive: 11.2%
Cc1cccc(C(=O)OCC(=O)N2CC(C)OC(C)C2)c1C (centres undefined),,inactive: 9.21%
CCCOc1ccc(C(=O)C(CN2CCCC2)c2ccccc2)cc1 (centres undefined),"inconclusive: 4.11 µM [activator, full curve]",
CCCc1ccc(NC(=O)C2CCN(c3cnccn3)CC2)cc1,,inactive: 19.4%
O=C(CN(Cc1ccccc1Cl)C(=O)c1csnn1)NCc1ccc2c(c1)OCO2,,inactive: -0.614%
Cn1c(=O)c2[nH]c(NN=Cc3cccc(Br)c3)nc2n(C)c1=O,"inconclusive: 20.6 µM [activator, partial curve, poor fit]",
COc1ccc(-c2c(-c3cc(OC)cc(OC)c3)n(C)c3ccc(-c4ccc(OC)cc4F)cc23)cc1,,inactive: 6.16%
O=C(CSC1=NNC(c2ccccn2)S1)Nc1ccc(C(F)(F)F)cc1 (centres undefined),"inconclusive: 5.8 µM [activator, partial curve, poor fit]",
N#Cc1ccc(NCC(=O)Nc2ccc(S(=O)(=O)N3CCCCC3)cc2)cc1,"inconclusive: 1.84 µM [activator, partial curve]",
O=C(N[C@@H]1C/C=C\C[C@H](CC(=O)N(CCO)Cc2ccccc2)C(=O)NC[C@@H](c2ccccc2)OC1=O)OCC1c2ccccc2-c2ccccc21,"inconclusive: 29.1 µM [activator, single point]",
Cc1ccc([C@@H]2[C@@H]3C(=O)N(C)C(=O)[C@@H]3[C@]3(C)C(=O)N(Cc4ccc(-c5ccccc5)cc4)CC(=O)N23)o1,,inactive: 5.32%

# Looked up above.
# Entry of CCC(=O)N1CCc2cc(OC)c(OC)cc2C1COc1ccc(C(=O)OC)cc1 (centres undefined) under re-replication activation: inactive: 11.2%
# Entry of CC1CC(C(F)F)n2nc(C(=O)Nc3sc4c(c3C#N)CCC(C(C)(C)C)C4)nc2N1 (centres undefined) under re-replication activation: inactive: 6.43% [at 9.22 µM]
# Entry of O=C(N[C@@H]1C/C=C\C[C@H](CC(=O)N(CCO)Cc2ccccc2)C(=O)NC[C@@H](c2ccccc2)OC1=O)OCC1c2ccccc2-c2ccccc21 under Potency: inconclusive: 29.1 µM [activator, single point]

# Additional records follow:

Compound,Potency,re-replication activation
Cc1cccc(N2CCN(C(=O)c3ccc(Cl)c(S(=O)(=O)N4CCc5ccccc5C4)c3)CC2)c1C,,inactive: -0.151%
COc1cccc(-c2nc(-c3ccc(NC(=O)Cc4ccccc4OC)cc3)no2)c1,,inactive: -0.177%
CN(CCc1ccccc1)C(=O)c1cccc(NC(=O)Cc2cccc(NC(=O)C3CCCN(C(=O)C4CCCC4)C3)c2)c1 (centres undefined),,inactive: 22.5%
COc1ccc(N(CC(=O)NCc2ccc(C)cc2)S(=O)(=O)c2c(C)[nH]c(=O)[nH]c2=O)cc1,,inactive: -8.69%
CCCCCn1c(SCC(=O)c2ccccc2)nc2cc(C(=O)NCC3CCCO3)ccc2c1=O (centres undefined),,inactive: -3.43%
CCC(C)Sc1ccc([C@H]2N[C@@](Cc3ccccc3)(C(=O)OC)[C@H]3C(=O)N(C)C(=O)[C@@H]23)cc1 (some centres undefined),,inactive: 1.99%
Cc1ccc(/C=N/Nc2nc3ccccc3s2)o1,,inactive: -0.0347%
CC(C)C1S/C(=N/N=C/c2ccco2)NC1=O (centres undefined),,inactive: -0.301%
CCCCSc1nc2ccc(Nc3nc(N4CCOCC4)nc(N4CCOCC4)n3)cc2s1,,inactive: 1.08%
COc1ccc2cc(C(=O)C3CCCN(C(=O)Cc4c(C)noc4C)C3)ccc2c1 (centres undefined),"inconclusive: 2.51 µM [activator, single point]",
CN(C)S(=O)(=O)c1ccc(C(=O)N2CCN=C2SCc2cccnc2)cc1,"inconclusive: 0.13 µM [activator, partial curve, poor fit]",
C[C@H]1CN([C@@H](C)CO)C(=O)c2cccc(NC(=O)C3CC3)c2O[C@H]1CN(C)Cc1ccncc1,"inconclusive: 0.0052 µM [activator, full curve, poor fit]",
CC1CC(N(C(=O)c2ccccc2Cl)c2ccccc2)c2ccccc2N1 (centres undefined),"inconclusive: 29.1 µM [activator, single point]",
O=C(/C=C/c1ccc([N+](=O)[O-])s1)N1CCCC1,active: 11.6 µM,
COC(=O)[C@H](C)N(Cc1ccc(Cl)c(Cl)c1)S(=O)(=O)CCN1CCN(c2ccccc2)CC1,"inconclusive: 0.731 µM [activator, partial curve, poor fit]",
C=CCOc1ccc(/C=N/NC(=O)CN(c2cc(Cl)ccc2OC)S(=O)(=O)c2ccc(C)c([N+](=O)[O-])c2)cc1,"inconclusive: 29.1 µM [activator, single point]",
CC(=O)OCC1=C[C@@H]2OC(=O)C3=CO[C@@H](O[C@@H]4O[C@H](CO)[C@@H](O)[C@H](O)[C@H]4O)[C@H]1[C@@H]32,,inactive: -2.23%
COc1ccc(CNC(=O)CNC(=O)c2cccs2)c(OC)c1,"inconclusive: 29.1 µM [activator, single point]",
Cc1nnc(SCC(=O)Nc2ccccc2)c2ccccc12,,inactive: -0.761%
Cn1c(C(=O)N2CCCC(C(=O)N3CCN(C(=O)c4ccco4)CC3)C2)cc2sccc21 (centres undefined),,inactive: -0.93%
CC1CCN(S(=O)(=O)c2cccc(C(=O)NCC3CCCO3)c2)CC1 (centres undefined),"inconclusive: 29.1 µM [activator, single point]",
Cc1ccc(-c2nn(-c3ccccc3)cc2CC(=S)N2CCOCC2)cc1,,inactive: 3.87%
